Results taken from PMC11137182, “Selective and brain-penetrant ACSS2 inhibitors target breast cancer brain metastatic cells” (Frontiers in Pharmacology, 2024).

Experiment: Human liver microsome stability

Remaining (T=60min) (human liver microsomes, 60 min): 0.00396
CLint scaled (human, liver microsomes): 158 mL/min/kg
microsomal CLint (human, liver microsomes): 175 µL/min/mg
SMILES: CCCNCC(O)COc1ccccc1C(=O)CCc1ccccc1 (stereo not drawn) [Propafenone, reference compound]
